# Experimental data published in US20240287484.
# Construct, isoform or probe ends are uncertain for at least one entry. Tags and fusion partners may be left off the protein sequences shown.
# Key:
# [1] = test system: T1, MG153-9 RT (uncultivated organism (metagenomic)); assay: activity assay; settings: primer extension, 3 mM MgCl2, 37 C, protein translated in vitro, protein details: N-terminal Strep (PURExpress), DNA:RNA hybrid, only the site is given
# T1 sequence: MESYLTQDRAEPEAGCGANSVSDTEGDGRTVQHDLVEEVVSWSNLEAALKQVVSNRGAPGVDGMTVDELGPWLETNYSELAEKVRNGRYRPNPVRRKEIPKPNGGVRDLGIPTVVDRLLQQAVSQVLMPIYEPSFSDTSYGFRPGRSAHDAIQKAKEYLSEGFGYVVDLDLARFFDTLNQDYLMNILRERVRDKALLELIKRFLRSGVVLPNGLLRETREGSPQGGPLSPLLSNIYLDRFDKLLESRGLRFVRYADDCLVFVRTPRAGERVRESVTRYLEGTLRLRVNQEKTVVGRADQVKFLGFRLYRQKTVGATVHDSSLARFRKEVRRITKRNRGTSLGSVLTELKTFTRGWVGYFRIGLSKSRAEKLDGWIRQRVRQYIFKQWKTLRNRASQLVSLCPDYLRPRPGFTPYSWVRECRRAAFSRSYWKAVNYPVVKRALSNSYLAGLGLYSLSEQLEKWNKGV
# [2] = test system: T2, FH-MCP-MG153-4 RT (uncultivated organism (metagenomic)); assay: activity in cells; settings: HEK293T, Taqman qPCR; protein in cells; protein details: N-terminal Flag-HA-MS2 coat protein; DNA:RNA hybrid
# T2 sequence: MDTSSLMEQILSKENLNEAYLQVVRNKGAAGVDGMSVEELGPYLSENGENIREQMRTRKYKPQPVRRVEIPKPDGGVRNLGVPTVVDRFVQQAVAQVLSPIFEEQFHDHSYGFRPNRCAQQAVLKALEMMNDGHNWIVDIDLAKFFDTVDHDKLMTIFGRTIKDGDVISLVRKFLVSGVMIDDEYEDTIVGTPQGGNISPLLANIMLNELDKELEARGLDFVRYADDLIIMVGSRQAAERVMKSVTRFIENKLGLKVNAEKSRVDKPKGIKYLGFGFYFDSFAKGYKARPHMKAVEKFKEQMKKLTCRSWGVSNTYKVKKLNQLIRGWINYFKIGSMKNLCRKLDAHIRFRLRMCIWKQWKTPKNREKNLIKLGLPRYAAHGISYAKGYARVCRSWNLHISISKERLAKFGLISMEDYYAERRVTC
# [3] = test system: T3, FH-MCP-MG153-53 RT (uncultivated organism (metagenomic)); assay: activity in cells; settings: HEK293T, Taqman qPCR; protein in cells; protein details: N-terminal Flag-HA-MS2 coat protein; DNA:RNA hybrid
# T3 sequence: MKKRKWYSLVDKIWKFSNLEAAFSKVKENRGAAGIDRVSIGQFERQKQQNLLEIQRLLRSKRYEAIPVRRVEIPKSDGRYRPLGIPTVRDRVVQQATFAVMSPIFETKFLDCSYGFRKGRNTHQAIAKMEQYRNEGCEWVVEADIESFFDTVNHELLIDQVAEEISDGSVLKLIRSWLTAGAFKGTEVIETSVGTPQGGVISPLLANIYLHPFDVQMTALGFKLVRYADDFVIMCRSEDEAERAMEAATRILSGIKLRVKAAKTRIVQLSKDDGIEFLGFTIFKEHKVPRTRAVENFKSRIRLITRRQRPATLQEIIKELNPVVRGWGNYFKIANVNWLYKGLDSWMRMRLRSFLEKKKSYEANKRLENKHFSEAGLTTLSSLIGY
# [4] = test system: T4, FH-MCP-MG153-16 RT (uncultivated organism (metagenomic)); assay: activity in cells; settings: HEK293T, PCR of cDNA; protein in cells; protein details: N-terminal Flag-HA-MS2 coat protein; DNA:RNA hybrid
# T4 sequence: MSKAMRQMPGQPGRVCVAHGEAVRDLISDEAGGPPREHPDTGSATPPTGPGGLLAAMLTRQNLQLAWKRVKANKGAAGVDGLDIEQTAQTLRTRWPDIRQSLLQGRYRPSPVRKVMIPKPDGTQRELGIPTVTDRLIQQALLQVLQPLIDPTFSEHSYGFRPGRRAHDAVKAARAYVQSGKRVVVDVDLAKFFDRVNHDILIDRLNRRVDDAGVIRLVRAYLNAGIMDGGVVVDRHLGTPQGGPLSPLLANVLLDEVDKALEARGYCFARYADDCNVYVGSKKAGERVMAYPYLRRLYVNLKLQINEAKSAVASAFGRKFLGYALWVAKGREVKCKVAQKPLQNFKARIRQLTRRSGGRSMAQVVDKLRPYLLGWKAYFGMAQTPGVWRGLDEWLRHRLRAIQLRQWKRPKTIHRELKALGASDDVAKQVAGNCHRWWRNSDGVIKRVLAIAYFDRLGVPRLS
# [5] = test system: T5, FH-MCP-MG153-15 RT (uncultivated organism (metagenomic)); assay: activity in cells; settings: HEK293T, normalized to protein expression, protein details: N-terminal Flag-HA-MS2 coat protein, DNA:RNA hybrid
# T5 sequence: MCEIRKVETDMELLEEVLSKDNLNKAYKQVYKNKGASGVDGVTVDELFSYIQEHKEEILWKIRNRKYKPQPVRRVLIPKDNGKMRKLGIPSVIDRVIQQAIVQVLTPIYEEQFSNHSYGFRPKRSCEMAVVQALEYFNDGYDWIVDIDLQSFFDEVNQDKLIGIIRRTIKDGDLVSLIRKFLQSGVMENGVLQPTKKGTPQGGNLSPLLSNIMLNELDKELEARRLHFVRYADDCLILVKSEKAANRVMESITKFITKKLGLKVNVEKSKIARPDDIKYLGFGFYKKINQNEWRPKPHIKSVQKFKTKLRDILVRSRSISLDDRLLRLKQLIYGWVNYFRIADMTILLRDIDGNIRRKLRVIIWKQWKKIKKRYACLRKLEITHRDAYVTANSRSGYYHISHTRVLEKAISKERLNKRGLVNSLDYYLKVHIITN
# [6] = test system: T6, FH-MCP-MG153-18 RT (uncultivated organism (metagenomic)); assay: activity in cells; settings: HEK293T, Taqman qPCR; protein in cells; protein details: N-terminal Flag-HA-MS2 coat protein; DNA:RNA hybrid
# T6 sequence: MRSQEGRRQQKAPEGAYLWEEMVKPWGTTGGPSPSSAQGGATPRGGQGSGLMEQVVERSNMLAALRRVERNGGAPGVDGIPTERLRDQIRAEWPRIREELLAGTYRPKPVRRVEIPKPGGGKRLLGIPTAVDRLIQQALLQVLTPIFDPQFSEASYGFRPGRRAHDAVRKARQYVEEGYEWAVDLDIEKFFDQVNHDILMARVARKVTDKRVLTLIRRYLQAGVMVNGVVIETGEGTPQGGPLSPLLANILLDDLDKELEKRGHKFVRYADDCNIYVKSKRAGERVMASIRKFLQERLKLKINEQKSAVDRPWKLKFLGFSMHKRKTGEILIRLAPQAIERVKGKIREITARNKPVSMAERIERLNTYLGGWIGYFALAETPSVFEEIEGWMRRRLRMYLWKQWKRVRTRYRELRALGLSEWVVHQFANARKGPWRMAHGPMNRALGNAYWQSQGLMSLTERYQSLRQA
# [7] = test system: T7, FH-MCP-MG153-5 RT (uncultivated organism (metagenomic)); assay: activity in cells; settings: HEK293T, Taqman qPCR; protein in cells; protein details: N-terminal Flag-HA-MS2 coat protein; DNA:RNA hybrid
# T7 sequence: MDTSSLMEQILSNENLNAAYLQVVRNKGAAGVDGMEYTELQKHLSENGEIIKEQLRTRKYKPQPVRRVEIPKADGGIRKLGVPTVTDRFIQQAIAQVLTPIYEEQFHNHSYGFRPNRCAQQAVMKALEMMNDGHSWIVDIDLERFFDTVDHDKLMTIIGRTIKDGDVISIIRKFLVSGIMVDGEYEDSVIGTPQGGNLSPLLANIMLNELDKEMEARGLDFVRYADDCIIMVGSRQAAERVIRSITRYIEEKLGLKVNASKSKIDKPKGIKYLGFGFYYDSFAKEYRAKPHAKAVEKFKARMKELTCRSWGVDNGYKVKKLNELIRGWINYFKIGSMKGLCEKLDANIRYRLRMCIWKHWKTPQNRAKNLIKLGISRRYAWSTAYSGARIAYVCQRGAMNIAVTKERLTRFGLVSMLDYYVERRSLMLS
# [8] = test system: T8, FH-MCP-MG153-7 RT (uncultivated organism (metagenomic)); assay: activity in cells; settings: HEK293T, Taqman qPCR; protein in cells; protein details: N-terminal Flag-HA-MS2 coat protein; DNA:RNA hybrid
# T8 sequence: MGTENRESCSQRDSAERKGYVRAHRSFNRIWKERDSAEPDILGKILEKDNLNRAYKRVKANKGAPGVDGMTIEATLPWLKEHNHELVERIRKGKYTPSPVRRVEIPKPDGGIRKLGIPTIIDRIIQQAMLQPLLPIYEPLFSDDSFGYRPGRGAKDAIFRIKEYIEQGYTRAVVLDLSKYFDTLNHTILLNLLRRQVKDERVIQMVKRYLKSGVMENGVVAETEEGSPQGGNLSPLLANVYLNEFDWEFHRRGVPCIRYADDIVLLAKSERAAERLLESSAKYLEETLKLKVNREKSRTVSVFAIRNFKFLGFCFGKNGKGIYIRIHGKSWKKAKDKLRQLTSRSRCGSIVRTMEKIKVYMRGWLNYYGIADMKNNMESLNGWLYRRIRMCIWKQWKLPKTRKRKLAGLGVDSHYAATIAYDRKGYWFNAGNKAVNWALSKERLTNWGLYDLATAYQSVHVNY
# [9] = test system: T9, FH-MCP-MG153-20 RT (uncultivated organism (metagenomic)); assay: activity in cells; settings: HEK293T, Taqman qPCR; protein in cells; protein details: N-terminal Flag-HA-MS2 coat protein; DNA:RNA hybrid
# T9 sequence: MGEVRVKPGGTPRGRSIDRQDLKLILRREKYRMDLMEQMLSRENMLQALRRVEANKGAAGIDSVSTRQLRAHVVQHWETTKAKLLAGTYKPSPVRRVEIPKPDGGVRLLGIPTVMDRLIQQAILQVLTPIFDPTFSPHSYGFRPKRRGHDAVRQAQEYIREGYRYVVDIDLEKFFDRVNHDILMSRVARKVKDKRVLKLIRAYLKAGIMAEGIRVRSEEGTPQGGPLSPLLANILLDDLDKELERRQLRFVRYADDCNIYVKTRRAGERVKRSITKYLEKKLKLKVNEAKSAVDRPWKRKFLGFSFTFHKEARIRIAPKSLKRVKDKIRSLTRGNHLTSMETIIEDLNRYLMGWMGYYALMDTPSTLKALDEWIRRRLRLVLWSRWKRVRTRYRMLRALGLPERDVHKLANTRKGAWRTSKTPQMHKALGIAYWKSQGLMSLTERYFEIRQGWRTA
# [10] = test system: T10, FH-MCP-MG153-21 RT (uncultivated organism (metagenomic)); assay: activity in cells; settings: HEK293T, PCR of cDNA; protein in cells; protein details: N-terminal Flag-HA-MS2 coat protein; DNA:RNA hybrid
# T10 sequence: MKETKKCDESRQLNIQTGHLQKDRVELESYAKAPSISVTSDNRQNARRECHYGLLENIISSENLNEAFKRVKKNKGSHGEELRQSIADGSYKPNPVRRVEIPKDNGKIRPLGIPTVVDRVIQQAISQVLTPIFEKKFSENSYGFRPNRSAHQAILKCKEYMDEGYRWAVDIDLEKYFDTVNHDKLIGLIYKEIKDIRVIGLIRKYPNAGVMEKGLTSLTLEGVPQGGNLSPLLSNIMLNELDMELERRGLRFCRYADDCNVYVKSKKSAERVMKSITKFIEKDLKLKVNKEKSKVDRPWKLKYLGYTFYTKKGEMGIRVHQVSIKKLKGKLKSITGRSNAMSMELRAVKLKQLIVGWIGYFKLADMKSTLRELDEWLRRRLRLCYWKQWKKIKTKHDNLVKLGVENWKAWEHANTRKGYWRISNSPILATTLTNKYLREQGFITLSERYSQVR
sequence,measurement,setting,value
AGACGGTCACAGCTTGTCTG [202 nt RNA template with PS primer 1],activity on this sequence,"[1]; 5 PS bonds at 5' end of primer, label: 5'-FAM",active
AGACGGTCACAGCTTGTCTG [202 nt RNA template with PS primer 2],activity on this sequence,"[1]; 5 PS bonds at both 5' and 3' ends of primer, label: 5'-FAM",active
AGACGGTCACAGCTTGTCTG [202 nt RNA template with PS primer 3],activity on this sequence,"[1]; PS A*G*A*C*G*GTCACAGCTT*G*T*C*TG, label: …",active
ATGGTATTTACTCTCGAAGACTTTGTCGGTGATTGGCGGCAAACTGCTGGGTATAATTTGGATCAGGTGCTGGAGCAAGGCGGCGTCAGCAGCCTGTTCCAAAACTTGGGAGTCTCAGTGACGCCAATTCAGCGGATCGTTCTTTCCGGGGAGAACGGATTGAAAATTGATATACACGTAATTATTCCATACGAGGGCCTCTCCGGTGATCAGATGGGTCAAATTGAGAAGATATTCAAAGTTGTTTATCCCGTAGACGACCACCATTTCAAAGTCATTCTCCATTACGGTACGTTAGTCATTGATGGCGTCACCCCTAATATGATAGATTACTTTGGCCGTCCCTACGAGGGAATTGCTGTGTTTGATGGGAAGAAAATTACAGTGACCGGAACTCTTTGGAATGGGAATAAGATCATTGATGAAAGACTTATAAATCCTGATGGGAGTCTCCTCTTTAGAGTGACAATTAATGGGGTAACAGGATGGAGACTCTGTGAGCGGATCTTGGCTTAGCCCAAACCCAAACCCAAACCTTTAGAGCTAGGCCAACATGAGGATTACCCATGTCTGCAGGGCCTAGCAAGTTAAAATAAGGCTAGTCCGTTATCAACTTGGCCAGGACTGAGGATTACCCAGTCTATCTGCAGGGCCAAGTAAAAAAAAAAGGAAGGGAAAAGGGG / GGTTTGGGTTTGGGTTTGGG [nanoluciferase mRNA annealed to DNA primer],activity on this sequence (relative to TGIRT),[2],> 1
same,activity on this sequence (relative to TGIRT),[3],> 1
same,activity on this sequence,[4],active
same,activity on this sequence (fold relative to TGIRT),[5],10
same,activity on this sequence (relative to TGIRT),[6],> 1
same,activity on this sequence (relative to TGIRT),[7],> 1
same,activity on this sequence (relative to TGIRT),[8],> 1
same,activity on this sequence (relative to TGIRT),[9],> 1
same,activity on this sequence,[10],active
